{
  "source": "patent US20140031275A1",
  "about": "“METHODS OF ERADICATING BACTERIAL CELL POPULATIONS” (priority 2011, published 2014)",
  "tested_on": "stationary state S. aureus SA113",
  "assay": "Antibiotic action against stationary state S. aureus SA113 (MSSA), cfu counts",
  "assay_type": "cell-based",
  "conditions": "antibiotic alone, 5-day incubation, FIG. 1",
  "protocol": "FIG. 1 is a graph showing antibiotic action against stationary state S. aureus. SA113.\nReferring to FIG. 1, antibiotic action against stationary state S. aureus. SA113, an MSSA commonly used as a S. aureus model strain, was evaluated. S. aureus SA113 was grown in Mueller-Hinton broth for 24 hours. Antibiotics were added at day 0. Time-points were taken every 24 hours. 100 μl of culture was removed, centrifuged for one minute, and the cells were resuspended in PBS. Serial dilutions from neat to 10^−6 were spotted on MHA plates and incubated overnight at 37° C. The results shown in FIG. 1 are the averages of three independent experiments.",
  "note": "For at least one compound, name, drawing or mass did not settle the structure.",
  "data": [
    {"smiles": "CO[C@H]1/C=C/O[C@@]2(C)Oc3c(C)c(O)c4c(O)c(c(/C=N/N5CCN(C)CC5)c(O)c4c3C2=O)NC(=O)/C(C)=C\\C=C\\[C@H](C)[C@H](O)[C@@H](C)[C@@H](O)[C@@H](C)[C@H](OC(C)=O)[C@@H]1C", "note": "[rifampicin]", "values": [
      {"measurement": "effect on stationary population of S. aureus cells", "value": "little effect"}
    ]}
  ]
}
